Measured values published in the supplement of paper PMC10849652.
Some of the results follow.

By UniProt entry, the sequences of proteins in these tests, tags left out. Where a name states a change or a piece, a line headed by the entry shows the natural chain unless it says otherwise.
UniProt P60981: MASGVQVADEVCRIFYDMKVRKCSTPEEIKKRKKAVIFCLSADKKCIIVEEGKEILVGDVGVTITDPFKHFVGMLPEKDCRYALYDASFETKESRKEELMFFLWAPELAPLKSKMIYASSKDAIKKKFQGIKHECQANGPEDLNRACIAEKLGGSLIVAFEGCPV
UniProt Q96EV8: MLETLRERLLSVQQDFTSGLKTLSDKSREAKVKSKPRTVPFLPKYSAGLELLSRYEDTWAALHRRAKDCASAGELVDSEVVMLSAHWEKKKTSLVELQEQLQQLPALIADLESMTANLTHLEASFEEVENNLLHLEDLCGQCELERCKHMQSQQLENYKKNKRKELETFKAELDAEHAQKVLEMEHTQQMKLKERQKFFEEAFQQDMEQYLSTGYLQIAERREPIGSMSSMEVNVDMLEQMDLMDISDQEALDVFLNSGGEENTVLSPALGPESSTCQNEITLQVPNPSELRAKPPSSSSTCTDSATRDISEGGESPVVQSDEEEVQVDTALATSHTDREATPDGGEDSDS
UniProt Q3B7T1: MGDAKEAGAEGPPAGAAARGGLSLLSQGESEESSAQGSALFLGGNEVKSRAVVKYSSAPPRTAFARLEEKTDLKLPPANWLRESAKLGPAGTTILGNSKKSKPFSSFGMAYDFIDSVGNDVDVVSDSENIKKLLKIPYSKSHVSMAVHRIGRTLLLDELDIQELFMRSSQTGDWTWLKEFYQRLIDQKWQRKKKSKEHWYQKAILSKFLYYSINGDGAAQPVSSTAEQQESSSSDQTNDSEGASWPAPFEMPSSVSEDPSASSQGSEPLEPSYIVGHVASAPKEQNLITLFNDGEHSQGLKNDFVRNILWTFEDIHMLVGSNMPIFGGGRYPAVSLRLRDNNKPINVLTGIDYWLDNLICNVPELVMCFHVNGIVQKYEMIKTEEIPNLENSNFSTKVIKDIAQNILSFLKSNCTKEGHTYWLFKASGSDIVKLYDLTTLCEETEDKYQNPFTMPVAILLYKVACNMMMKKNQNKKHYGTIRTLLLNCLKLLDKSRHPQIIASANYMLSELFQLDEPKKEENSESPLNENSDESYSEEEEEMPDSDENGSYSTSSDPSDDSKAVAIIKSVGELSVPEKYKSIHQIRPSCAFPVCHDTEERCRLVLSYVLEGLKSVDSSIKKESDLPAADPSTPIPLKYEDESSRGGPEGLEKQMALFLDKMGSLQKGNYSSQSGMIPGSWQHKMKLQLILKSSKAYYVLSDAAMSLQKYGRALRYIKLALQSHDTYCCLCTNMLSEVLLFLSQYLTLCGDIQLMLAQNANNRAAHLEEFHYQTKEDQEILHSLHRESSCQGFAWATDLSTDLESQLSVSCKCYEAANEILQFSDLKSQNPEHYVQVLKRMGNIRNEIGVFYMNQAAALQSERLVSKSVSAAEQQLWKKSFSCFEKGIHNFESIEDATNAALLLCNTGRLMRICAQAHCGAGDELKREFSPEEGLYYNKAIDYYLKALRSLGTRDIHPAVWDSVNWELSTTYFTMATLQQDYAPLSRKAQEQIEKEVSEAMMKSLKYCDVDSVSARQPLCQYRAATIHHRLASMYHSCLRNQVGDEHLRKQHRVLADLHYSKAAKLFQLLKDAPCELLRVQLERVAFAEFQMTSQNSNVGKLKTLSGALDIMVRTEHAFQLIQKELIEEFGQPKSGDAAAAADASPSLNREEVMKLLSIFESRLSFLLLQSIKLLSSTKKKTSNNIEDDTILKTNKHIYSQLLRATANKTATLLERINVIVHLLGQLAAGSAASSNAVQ
UniProt Q9BUP0: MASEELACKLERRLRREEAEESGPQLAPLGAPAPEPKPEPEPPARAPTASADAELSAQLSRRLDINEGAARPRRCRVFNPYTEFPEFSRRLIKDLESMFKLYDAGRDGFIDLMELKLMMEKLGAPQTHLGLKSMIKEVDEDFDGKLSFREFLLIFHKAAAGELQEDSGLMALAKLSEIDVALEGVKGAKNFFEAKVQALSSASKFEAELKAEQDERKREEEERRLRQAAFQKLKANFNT
UniProt P98172: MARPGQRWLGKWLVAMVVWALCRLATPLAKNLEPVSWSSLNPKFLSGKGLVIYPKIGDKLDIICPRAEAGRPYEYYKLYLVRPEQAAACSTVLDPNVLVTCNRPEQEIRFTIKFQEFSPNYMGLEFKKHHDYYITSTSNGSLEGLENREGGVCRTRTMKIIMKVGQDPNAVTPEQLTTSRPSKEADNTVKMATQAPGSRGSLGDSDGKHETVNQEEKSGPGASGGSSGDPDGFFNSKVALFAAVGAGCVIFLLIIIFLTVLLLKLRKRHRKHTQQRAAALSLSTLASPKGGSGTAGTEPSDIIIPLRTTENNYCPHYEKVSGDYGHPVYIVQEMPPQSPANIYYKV
UniProt Q15075: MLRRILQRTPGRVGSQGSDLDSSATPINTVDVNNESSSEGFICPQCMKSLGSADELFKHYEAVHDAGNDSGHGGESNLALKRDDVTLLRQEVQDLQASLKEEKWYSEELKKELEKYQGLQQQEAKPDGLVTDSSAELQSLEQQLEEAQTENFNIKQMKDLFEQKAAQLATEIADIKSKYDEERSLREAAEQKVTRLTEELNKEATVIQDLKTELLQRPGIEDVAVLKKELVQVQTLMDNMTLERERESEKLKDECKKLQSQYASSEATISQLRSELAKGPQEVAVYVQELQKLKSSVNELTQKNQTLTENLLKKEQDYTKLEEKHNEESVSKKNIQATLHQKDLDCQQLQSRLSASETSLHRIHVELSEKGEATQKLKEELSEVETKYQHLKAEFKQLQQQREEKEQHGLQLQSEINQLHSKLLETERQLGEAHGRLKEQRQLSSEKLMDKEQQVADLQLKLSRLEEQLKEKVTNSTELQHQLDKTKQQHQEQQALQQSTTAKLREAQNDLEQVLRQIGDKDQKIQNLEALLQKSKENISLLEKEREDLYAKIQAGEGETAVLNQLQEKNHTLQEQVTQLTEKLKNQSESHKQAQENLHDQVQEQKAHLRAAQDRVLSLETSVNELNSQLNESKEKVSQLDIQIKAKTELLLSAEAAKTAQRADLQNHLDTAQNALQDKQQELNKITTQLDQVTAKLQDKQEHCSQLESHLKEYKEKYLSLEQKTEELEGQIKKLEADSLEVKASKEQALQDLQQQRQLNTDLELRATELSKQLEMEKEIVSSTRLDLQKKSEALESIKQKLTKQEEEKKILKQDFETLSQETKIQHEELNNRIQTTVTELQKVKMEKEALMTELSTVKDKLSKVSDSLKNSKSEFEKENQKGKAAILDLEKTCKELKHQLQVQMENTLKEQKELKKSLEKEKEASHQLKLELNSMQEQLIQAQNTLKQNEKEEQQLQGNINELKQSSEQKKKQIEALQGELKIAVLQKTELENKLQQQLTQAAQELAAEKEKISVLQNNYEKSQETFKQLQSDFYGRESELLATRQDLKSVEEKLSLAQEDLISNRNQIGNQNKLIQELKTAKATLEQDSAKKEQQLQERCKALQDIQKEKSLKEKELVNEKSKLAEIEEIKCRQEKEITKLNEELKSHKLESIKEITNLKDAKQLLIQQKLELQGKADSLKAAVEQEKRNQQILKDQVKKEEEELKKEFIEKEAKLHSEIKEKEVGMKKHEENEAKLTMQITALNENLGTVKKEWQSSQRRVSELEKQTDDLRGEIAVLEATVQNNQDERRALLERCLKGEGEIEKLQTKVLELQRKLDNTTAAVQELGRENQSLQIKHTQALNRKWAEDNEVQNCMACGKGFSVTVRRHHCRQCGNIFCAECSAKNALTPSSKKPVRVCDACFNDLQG
UniProt P55039: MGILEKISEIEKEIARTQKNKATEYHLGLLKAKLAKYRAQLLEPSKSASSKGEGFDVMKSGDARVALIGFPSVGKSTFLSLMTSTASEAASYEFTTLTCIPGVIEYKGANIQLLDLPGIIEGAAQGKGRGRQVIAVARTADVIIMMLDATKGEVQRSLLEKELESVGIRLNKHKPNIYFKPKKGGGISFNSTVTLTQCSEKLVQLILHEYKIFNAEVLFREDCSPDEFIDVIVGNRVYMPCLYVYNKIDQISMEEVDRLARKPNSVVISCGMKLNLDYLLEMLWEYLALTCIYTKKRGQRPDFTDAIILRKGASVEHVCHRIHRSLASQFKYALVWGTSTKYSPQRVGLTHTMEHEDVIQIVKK
UniProt Q9GZT9: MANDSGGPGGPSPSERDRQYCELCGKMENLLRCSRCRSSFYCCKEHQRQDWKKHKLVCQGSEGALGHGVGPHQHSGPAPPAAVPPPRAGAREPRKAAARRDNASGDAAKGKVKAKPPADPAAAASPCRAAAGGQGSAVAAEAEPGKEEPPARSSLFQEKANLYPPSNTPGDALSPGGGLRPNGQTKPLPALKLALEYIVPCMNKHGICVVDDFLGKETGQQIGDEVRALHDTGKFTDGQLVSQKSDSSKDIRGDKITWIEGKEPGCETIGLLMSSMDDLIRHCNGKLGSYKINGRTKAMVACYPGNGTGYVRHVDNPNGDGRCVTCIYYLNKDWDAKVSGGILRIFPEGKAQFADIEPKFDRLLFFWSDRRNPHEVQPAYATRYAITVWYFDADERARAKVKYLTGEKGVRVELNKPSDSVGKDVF
UniProt Q96F86: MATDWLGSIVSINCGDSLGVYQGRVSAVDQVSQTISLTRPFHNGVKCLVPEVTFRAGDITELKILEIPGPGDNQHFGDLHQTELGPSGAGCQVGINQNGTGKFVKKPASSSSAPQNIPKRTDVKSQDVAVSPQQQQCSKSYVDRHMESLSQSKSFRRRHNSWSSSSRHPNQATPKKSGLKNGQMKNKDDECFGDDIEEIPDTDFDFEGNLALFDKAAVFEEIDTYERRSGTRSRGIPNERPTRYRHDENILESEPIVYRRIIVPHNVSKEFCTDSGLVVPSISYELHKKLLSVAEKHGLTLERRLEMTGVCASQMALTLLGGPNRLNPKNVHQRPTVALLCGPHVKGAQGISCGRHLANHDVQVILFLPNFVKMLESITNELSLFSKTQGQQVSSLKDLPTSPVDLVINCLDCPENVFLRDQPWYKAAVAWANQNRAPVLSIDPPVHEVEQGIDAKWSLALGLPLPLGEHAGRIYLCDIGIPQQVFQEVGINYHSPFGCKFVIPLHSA
UniProt Q8N3D4: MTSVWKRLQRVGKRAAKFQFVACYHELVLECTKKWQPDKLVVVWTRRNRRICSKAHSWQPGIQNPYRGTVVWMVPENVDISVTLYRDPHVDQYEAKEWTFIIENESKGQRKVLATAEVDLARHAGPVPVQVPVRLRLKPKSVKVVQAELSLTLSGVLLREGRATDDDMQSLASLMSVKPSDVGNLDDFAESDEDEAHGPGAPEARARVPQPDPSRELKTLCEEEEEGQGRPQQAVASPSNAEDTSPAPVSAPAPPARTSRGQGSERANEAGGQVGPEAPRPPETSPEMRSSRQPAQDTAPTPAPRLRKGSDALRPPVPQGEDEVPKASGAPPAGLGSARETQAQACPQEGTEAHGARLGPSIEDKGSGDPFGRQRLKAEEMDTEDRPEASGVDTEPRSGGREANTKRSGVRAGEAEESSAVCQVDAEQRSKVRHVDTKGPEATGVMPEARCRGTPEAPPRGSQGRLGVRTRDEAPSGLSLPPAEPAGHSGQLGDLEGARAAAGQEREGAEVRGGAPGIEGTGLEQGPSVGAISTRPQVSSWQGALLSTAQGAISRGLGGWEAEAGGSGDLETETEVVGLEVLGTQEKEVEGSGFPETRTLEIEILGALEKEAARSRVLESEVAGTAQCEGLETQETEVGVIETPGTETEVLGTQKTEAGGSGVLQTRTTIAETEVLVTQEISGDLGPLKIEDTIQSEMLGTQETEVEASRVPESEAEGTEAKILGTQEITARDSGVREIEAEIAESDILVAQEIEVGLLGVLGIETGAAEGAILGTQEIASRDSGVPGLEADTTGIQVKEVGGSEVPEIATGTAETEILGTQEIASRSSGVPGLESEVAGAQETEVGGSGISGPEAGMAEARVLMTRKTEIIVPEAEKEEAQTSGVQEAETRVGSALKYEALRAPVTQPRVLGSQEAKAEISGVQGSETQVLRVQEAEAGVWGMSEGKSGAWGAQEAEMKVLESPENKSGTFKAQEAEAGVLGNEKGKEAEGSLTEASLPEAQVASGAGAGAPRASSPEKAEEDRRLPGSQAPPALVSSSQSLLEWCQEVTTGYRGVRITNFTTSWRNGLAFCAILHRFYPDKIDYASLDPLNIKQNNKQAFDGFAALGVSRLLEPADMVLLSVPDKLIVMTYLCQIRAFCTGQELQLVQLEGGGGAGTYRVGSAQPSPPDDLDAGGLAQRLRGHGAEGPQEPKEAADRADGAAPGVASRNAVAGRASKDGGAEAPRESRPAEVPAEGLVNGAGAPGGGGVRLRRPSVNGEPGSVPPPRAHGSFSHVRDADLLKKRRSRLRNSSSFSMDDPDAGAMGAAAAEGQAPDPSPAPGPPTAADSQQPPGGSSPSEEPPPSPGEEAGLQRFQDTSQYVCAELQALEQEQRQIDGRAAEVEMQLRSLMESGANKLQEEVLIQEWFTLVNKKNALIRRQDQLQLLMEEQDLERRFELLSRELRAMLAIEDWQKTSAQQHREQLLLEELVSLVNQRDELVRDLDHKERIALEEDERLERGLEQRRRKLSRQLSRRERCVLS

Assays:
Assay in all cases: log2 fold change, soluble protein after heating vs DMSO (PISA); higher = thermal stabilisation; K562 lysate, 10 uM; active = over 0.2 and 3.5 SD of the protein, either way, in both replicates (recomputed)
lapatinib = compound: CS(=O)(=O)CCNCc1ccc(-c2ccc3ncnc(Nc4ccc(OCc5cccc(F)c5)c(Cl)c4)c3c2)o1 [lapatinib]
Method in brief: (§1)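 Soluble protein was defined as the supernatant remaining after 21,000xg for 90 min, following pooling of heated aliquots and adjustment to 0.5% NP-40 at 4°C. Before that, crude K562 extract at 1 mg/mL protein in PBS pH 7.4 with 1 mM MgCl2 was treated with 10 μM compound for 30 min and heated for 3 min across 48°C-58°C. Quantification used TMTpro 16plex LC-MS/MS with channel sums equalised, and values are log-two fold changes in thermal stability relative to solvent controls from duplicates.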

pictilisib = compound: CS(=O)(=O)N1CCN(Cc2cc3nc(-c4cccc5[nH]ncc45)nc(N4CCOCC4)c3s2)CC1 [pictilisib]
Method in brief: as §1

crizotinib = compound: C[C@@H](Oc1cc(-c2cnn(C3CCNCC3)c2)cnc1N)c1c(Cl)ccc(F)c1Cl [crizotinib]
Method in brief: as §1

[1] = compound: C[C@H](C1=CC=C(C=C1)C(=O)NC2=C3C=CNC3=NC=C2)N
Method in brief: as §1

duvelisib = compound: C[C@H](Nc1ncnc2nc[nH]c12)c1cc2cccc(Cl)c2c(=O)n1-c1ccccc1 [duvelisib]
Method in brief: as §1

gandotinib = compound: Cc1cc(Nc2cc(CN3CCOCC3)c3nc(C)c(Cc4ccc(Cl)cc4F)n3n2)n[nH]1 [gandotinib]
Method in brief: as §1

tozasertib = compound: Cc1cc(Nc2cc(N3CCN(C)CC3)nc(Sc3ccc(NC(=O)C4CC4)cc3)n2)n[nH]1 [tozasertib]
Method in brief: as §1

doramapimod = compound: Cc1ccc(-n2nc(C(C)(C)C)cc2NC(=O)Nc2ccc(OCCN3CCOCC3)c3ccccc23)cc1 [doramapimod]
Method in brief: as §1

bafetinib = compound: Cc1ccc(NC(=O)c2ccc(CN3CC[C@H](N(C)C)C3)c(C(F)(F)F)c2)cc1Nc1nccc(-c2cncnc2)n1 [bafetinib]
Method in brief: as §1

[2] = compound: Cc1cccc(CC(=O)N2CCc3c2ccc(-c2cn(C)c4ncnc(N)c24)c3F)n1
Method in brief: as §1

nilotinib = compound: Cc1cn(-c2cc(NC(=O)c3ccc(C)c(Nc4nccc(-c5cccnc5)n4)c3)cc(C(F)(F)F)c2)cn1 [nilotinib]
Method in brief: as §1

[3] = compound: Cc1nc(Nc2n[nH]c3c2CN(C(=O)N[C@H](CN(C)C)c2ccccc2)C3(C)C)c2sccc2n1
Method in brief: as §1

dasatinib = compound: Cc1nc(Nc2ncc(C(=O)Nc3c(C)cccc3Cl)s2)cc(N2CCN(CCO)CC2)n1 [dasatinib]
Method in brief: as §1

[4] = compound: Cc1ncc(-c2ccnc(Nc3ccc(S(C)(=O)=O)cc3)n2)n1C(C)C
Method in brief: as §1

[5] = compound: Cn1cc(-c2ccc3c(c2)CCN3C(=O)Cc2cccc(C(F)(F)F)c2)c2c(N)ncnc21
Method in brief: as §1

quisinostat = compound: Cn1cc(CNCC2CCN(c3ncc(C(=O)NO)cn3)CC2)c2ccccc21 [quisinostat]
Method in brief: as §1

tipifarnib = compound: Cn1cncc1[C@@](N)(c1ccc(Cl)cc1)c1ccc2c(c1)c(-c1cccc(Cl)c1)cc(=O)n2C [tipifarnib]
Method in brief: as §1

[6] = compound: NC(=O)Nc1cc(-c2cccc(F)c2)sc1C(=O)N[C@H]1CCCNC1
Method in brief: as §1

[7] = compound: NC(=O)c1cnc(N[C@@H]2CCCC[C@@H]2N)nc1Nc1cccc(-n2nccn2)c1
Method in brief: as §1

[8] = compound: NC1(c2ccc(-c3nc4ccn5c(=O)[nH]nc5c4cc3-c3ccccc3)cc2)CCC1
Method in brief: as §1

Measured: log2 fold change

DSTN (UniProt P60981)
inactive: lapatinib 0.01 | pictilisib 0.008 | crizotinib 0.007 | [1] -0.02 | duvelisib -0.001 | gandotinib -0.023 | tozasertib 0.031 | doramapimod -0.015 | bafetinib 0.057 | [2] 0.019 | nilotinib 0.01 | [3] 0.012 | dasatinib -0.013 | [4] 0.009 | [5] 0.034 | quisinostat 0.045 | tipifarnib -0.005 | [6] -0.022 | [7] 0.022 | [8] -0.008

DUS4L (UniProt O95620)
inactive: lapatinib 0.001 | pictilisib 0.056 | crizotinib -0.048 | [1] -0.021 | duvelisib 0.057 | gandotinib 0.023 | tozasertib -0.019 | doramapimod -0.009 | bafetinib -0.071 | [2] 0.045 | nilotinib 0.063 | [3] -0.071 | dasatinib 0.044 | [4] 0.14 | [5] -0.026 | quisinostat -0.11 | tipifarnib -0.082 | [6] 0.028 | [7] 0.005 | [8] 0.004

DSN1 (UniProt Q9H410)
inactive: lapatinib 0.009 | pictilisib -0.027 | crizotinib -0.016 | [1] -0.051 | duvelisib 0.004 | gandotinib 0.008 | tozasertib 0.015 | doramapimod -0.037 | bafetinib -0.026 | [2] 0.021 | nilotinib -0.006 | [3] 0.023 | dasatinib -0.022 | [4] 0.001 | [5] 0.011 | quisinostat -0.015 | tipifarnib -0.015 | [6] 0.05 | [7] 0.014 | [8] 0.031

DTNBP1 (UniProt Q96EV8)
inactive: lapatinib -0.01 | pictilisib 0 | crizotinib -0.038 | [1] 0.013 | duvelisib -0.017 | gandotinib 0.092 | tozasertib 0.092 | doramapimod 0.04 | bafetinib -0.025 | [2] -0.032 | nilotinib 0.02 | [3] -0.023 | dasatinib 0.03 | [4] -0.015 | [5] 0.061 | quisinostat -0.008 | tipifarnib 0.053 | [6] 0.054 | [7] -0.022 | [8] 0.015

EEF1G isoform 2 (UniProt P26641)
inactive: lapatinib -0.001 | pictilisib -0.01 | crizotinib -0.012 | [1] 0.037 | duvelisib -0.028 | gandotinib -0.167 | tozasertib -0.012 | doramapimod 0.014 | bafetinib 0.041 | [2] -0.098 | nilotinib 0.011 | [3] 0.004 | dasatinib 0.017 | [4] -0.013 | [5] 0.034 | quisinostat 0.025 | tipifarnib -0.002 | [6] 0.004 | [7] -0.007 | [8] 0.001

EDRF1 (UniProt Q3B7T1)
inactive: lapatinib -0.039 | pictilisib -0.041 | crizotinib -0.183 | [1] 0.025 | duvelisib -0.003 | gandotinib -0.02 | tozasertib 0.086 | doramapimod 0.034 | bafetinib -0.095 | [2] -0.019 | nilotinib -0.105 | [3] 0.023 | dasatinib 0.031 | [4] 0.105 | [5] -0.038 | quisinostat -0.235 | tipifarnib -0.086 | [6] 0.005 | [7] 0.038 | [8] 0.046

EEF1D isoform 2 (UniProt P29692)
inactive: lapatinib -0.013 | pictilisib 0.032 | crizotinib -0.015 | [1] -0.077 | duvelisib 0.066 | gandotinib 0.03 | tozasertib -0.008 | doramapimod 0.02 | bafetinib -0.011 | [2] 0.049 | nilotinib -0.013 | [3] -0.02 | dasatinib -0.023 | [4] -0.029 | [5] -0.053 | quisinostat -0.009 | tipifarnib 0.01 | [6] -0.012 | [7] -0.001 | [8] -0.003

EFHD1 (UniProt Q9BUP0)
inactive: lapatinib -0.017 | pictilisib -0.018 | crizotinib -0.004 | [1] 0.052 | duvelisib 0.007 | gandotinib 0.034 | tozasertib -0.036 | doramapimod -0.019 | bafetinib 0.034 | [2] -0.043 | nilotinib 0.067 | [3] 0.062 | dasatinib 0.061 | [4] -0.13 | [5] -0.005 | quisinostat -0.025 | tipifarnib 0.021 | [6] -0.059 | [7] 0.012 | [8] 0.014

EFNB1 (UniProt P98172)
inactive: lapatinib 0.028 | pictilisib -0.051 | crizotinib -0.038 | [1] 0.039 | duvelisib 0.022 | gandotinib -0.033 | tozasertib 0.047 | doramapimod 0.054 | bafetinib -0.093 | [2] 0.195 | nilotinib -0.054 | [3] -0.249 | dasatinib 0.006 | [4] -0.222 | [5] 0.03 | quisinostat 0.014 | tipifarnib 0.003 | [6] 0.011 | [7] 0.013 | [8] -0.007

EI24 (UniProt O14681)
inactive: lapatinib -0.045 | pictilisib -0.007 | crizotinib 0.013 | [1] 0.123 | duvelisib -0.033 | gandotinib -0.115 | tozasertib 0.003 | doramapimod -0.161 | bafetinib -0.021 | [2] -0.066 | nilotinib -0.055 | [3] -0.018 | dasatinib 0.043 | [4] 0.018 | [5] 0.034 | quisinostat -0.014 | tipifarnib -0.009 | [6] -0.075 | [7] 0.011 | [8] 0.017

EEA1 (UniProt Q15075)
inactive: lapatinib -0.004 | pictilisib 0.002 | crizotinib 0.018 | [1] 0.024 | duvelisib 0.003 | gandotinib 0.011 | tozasertib -0.023 | doramapimod 0 | bafetinib 0.008 | [2] -0.044 | nilotinib -0.021 | [3] 0.009 | dasatinib 0.021 | [4] 0.007 | [5] 0.014 | quisinostat 0.002 | tipifarnib 0.008 | [6] -0.008 | [7] -0.015 | [8] 0.02

DRG2 (UniProt P55039)
inactive: lapatinib -0.024 | pictilisib -0.002 | crizotinib -0.021 | [1] -0.047 | duvelisib -0.001 | gandotinib -0.01 | tozasertib 0.016 | doramapimod 0.04 | bafetinib -0.044 | [2] -0.005 | nilotinib 0.011 | [3] -0.019 | dasatinib -0.013 | [4] 0.004 | [5] -0.029 | quisinostat -0.053 | tipifarnib 0.019 | [6] 0.037 | [7] -0.023 | [8] -0.036

EGLN1 (UniProt Q9GZT9)
inactive: lapatinib -0.075 | pictilisib 0.031 | crizotinib -0.018 | [1] 0.037 | duvelisib 0.199 | gandotinib -0.036 | tozasertib 0.034 | doramapimod 0.006 | bafetinib 0.001 | [2] -0.055 | nilotinib 0.006 | [3] 0.007 | dasatinib -0.045 | [4] -0.066 | [5] 0.03 | quisinostat -0.048 | tipifarnib -0.05 | [6] 0.044 | [7] 0.039 | [8] 0.006

EDC3 (UniProt Q96F86)
inactive: lapatinib -0.007 | pictilisib -0.034 | crizotinib -0.012 | [1] -0.021 | duvelisib 0.014 | gandotinib 0.032 | tozasertib -0.007 | doramapimod 0.024 | bafetinib -0.008 | [2] -0.003 | nilotinib 0.045 | [3] 0.016 | dasatinib -0.022 | [4] -0.031 | [5] 0.004 | quisinostat -0.006 | tipifarnib -0.069 | [6] -0.019 | [7] -0.014 | [8] 0.017

2 records picked at random from the list so far:
EFHD1 (UniProt Q9BUP0)
inactive: lapatinib -0.017 | pictilisib -0.018 | crizotinib -0.004 | [1] 0.052 | duvelisib 0.007 | gandotinib 0.034 | tozasertib -0.036 | doramapimod -0.019 | bafetinib 0.034 | [2] -0.043 | nilotinib 0.067 | [3] 0.062 | dasatinib 0.061 | [4] -0.13 | [5] -0.005 | quisinostat -0.025 | tipifarnib 0.021 | [6] -0.059 | [7] 0.012 | [8] 0.014

EDRF1 (UniProt Q3B7T1)
inactive: lapatinib -0.039 | pictilisib -0.041 | crizotinib -0.183 | [1] 0.025 | duvelisib -0.003 | gandotinib -0.02 | tozasertib 0.086 | doramapimod 0.034 | bafetinib -0.095 | [2] -0.019 | nilotinib -0.105 | [3] 0.023 | dasatinib 0.031 | [4] 0.105 | [5] -0.038 | quisinostat -0.235 | tipifarnib -0.086 | [6] 0.005 | [7] 0.038 | [8] 0.046

Later entries

EHBP1L1 (UniProt Q8N3D4)
inactive: lapatinib -0.038 | pictilisib 0.005 | crizotinib -0.003 | [1] -0.063 | duvelisib 0.023 | gandotinib -0.004 | tozasertib 0.025 | doramapimod -0.002 | bafetinib -0.073 | [2] 0.051 | nilotinib 0.07 | [3] -0.024 | dasatinib -0.03 | [4] -0.019 | [5] 0.067 | quisinostat 0.003 | tipifarnib 0.019 | [6] -0.002 | [7] 0.077 | [8] 0.06

DUSP3 (UniProt P51452)
inactive: lapatinib -0.016 | pictilisib -0.038 | crizotinib 0 | [1] -0.05 | duvelisib 0.003 | gandotinib 0.006 | tozasertib 0.028 | doramapimod -0.003 | bafetinib -0.048 | [2] 0.031 | nilotinib 0.033 | [3] -0.035 | dasatinib -0.06 | [4] 0.038 | [5] 0.011 | quisinostat -0.02 | tipifarnib 0.037 | [6] -0.021 | [7] 0.028 | [8] -0.007
